Construct, isoform or probe ends are uncertain for at least one entry. Where a protein sequence is shown, tags need not be part of it.
What was measured:
[1] = target: T1, NIN C-terminal half, His-tagged (Lotus japonicus) (UniProt Q9S7B1); experiment: EMSA; conditions: 1 nM Cy5 DNA; 20 mM Tris pH 7.5, 5% glycerol, 10 mM MgCl2, 0.25 mM DTT, 0.8 ug BSA, 1 ug salmon sperm DNA in 20 uL; 30 C 20 min; 6% native PAGE in TBE at 4 C; recombinant protein; protein details: C-terminal His; label: 5' Cy5; probe letters rebuilt from the primers and the genome
T1 sequence (looked up, limits assumed): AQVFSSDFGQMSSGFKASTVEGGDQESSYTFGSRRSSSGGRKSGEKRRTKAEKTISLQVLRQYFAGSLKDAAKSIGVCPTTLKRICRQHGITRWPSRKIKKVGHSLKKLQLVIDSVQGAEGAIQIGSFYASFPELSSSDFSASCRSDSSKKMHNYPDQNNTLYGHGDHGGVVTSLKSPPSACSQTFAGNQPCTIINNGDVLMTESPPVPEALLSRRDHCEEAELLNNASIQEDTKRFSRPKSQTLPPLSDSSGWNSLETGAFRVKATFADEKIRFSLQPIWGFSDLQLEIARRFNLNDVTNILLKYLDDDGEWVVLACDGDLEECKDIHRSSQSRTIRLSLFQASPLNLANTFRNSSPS

[2] = target: T1, NIN C-terminal half, His-tagged (Lotus japonicus); experiment: competition with a labelled probe; conditions: unlabeled self competitor, 2- and 10-fold; 1 nM Cy5 DNA; 20 mM Tris pH 7.5, 5% glycerol, 10 mM MgCl2, 0.25 mM DTT, 0.8 ug BSA, 1 ug salmon sperm DNA in 20 uL; 30 C 20 min; 6% native PAGE in TBE at 4 C; recombinant protein; protein details: C-terminal His; label: 5' Cy5; probe letters rebuilt from the primers and the genome

| Sequence | binding result [1] | binding result [2] |
| --- | --- | --- |
| AGCCAGTGGCGATAAGATACAACTATGTGCCATAAACTATAATTGAAAAATTTAAAATGAGCATGCATAATTAGATCATGTAAATTAAACTTAAAAATAACTTAATAGTTTACATTAACTTATTATAACTGATGTTCATAACAGGATCATAATCCTTTCAATTGCTAAAAACATTAACCATGTGAATTAAAGTTTCATCACCAGTTTAACCTTATCGCCACTGGCT (double strand) [RPG promoter S2] | binds | binds |
| AGCCAGTGGCGATAAGTAGACTGCAATAACTTCAGAAGGGGACGTAACTTTTGATTTGTGGTGTTCATGCGGTCCAATTATACAAGTTTTGGTCATTTGGGTAAGTTTCTTCTTCTTCCTTTTCAGTTCCTTGAAAGATCGAGGATTATAAGGAAGACAAATTCATAAACTGCATTAAAAAAGTTTTATACTCAGAATTGTGTGTTGTAAAGGACTTATCGCCACTGGCT (double strand) [RPG promoter S1] | binds | binds |

— PMC9931111
